For two substances, binding results are on record in PMC5003816.

Amino acid sequences for entries named in this document (tags omitted). A change or cut given only in a name is not applied to a line headed by its entry.
UniProt Q9UHD9: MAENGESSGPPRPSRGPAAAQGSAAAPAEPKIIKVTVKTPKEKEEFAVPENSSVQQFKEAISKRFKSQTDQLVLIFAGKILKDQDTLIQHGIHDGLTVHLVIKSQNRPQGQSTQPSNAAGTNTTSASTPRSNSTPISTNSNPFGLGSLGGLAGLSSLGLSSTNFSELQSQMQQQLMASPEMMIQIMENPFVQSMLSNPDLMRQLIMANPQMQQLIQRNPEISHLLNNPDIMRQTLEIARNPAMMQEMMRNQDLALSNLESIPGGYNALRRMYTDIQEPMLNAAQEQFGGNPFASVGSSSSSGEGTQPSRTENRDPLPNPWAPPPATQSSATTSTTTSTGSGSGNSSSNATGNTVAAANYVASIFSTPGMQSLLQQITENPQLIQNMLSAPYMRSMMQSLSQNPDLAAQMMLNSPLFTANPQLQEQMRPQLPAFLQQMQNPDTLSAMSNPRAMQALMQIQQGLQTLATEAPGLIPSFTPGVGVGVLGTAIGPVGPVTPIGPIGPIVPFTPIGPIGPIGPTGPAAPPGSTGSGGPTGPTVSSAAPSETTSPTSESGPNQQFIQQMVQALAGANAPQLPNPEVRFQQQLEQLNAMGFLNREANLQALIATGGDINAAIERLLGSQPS
UniProt P60900: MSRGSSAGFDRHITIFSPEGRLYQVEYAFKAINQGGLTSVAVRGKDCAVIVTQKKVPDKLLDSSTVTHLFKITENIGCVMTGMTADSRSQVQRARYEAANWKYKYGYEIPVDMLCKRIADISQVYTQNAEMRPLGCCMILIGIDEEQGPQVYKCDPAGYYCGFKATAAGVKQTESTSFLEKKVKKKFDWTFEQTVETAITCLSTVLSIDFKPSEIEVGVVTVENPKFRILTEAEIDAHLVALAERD
UniProt P11142: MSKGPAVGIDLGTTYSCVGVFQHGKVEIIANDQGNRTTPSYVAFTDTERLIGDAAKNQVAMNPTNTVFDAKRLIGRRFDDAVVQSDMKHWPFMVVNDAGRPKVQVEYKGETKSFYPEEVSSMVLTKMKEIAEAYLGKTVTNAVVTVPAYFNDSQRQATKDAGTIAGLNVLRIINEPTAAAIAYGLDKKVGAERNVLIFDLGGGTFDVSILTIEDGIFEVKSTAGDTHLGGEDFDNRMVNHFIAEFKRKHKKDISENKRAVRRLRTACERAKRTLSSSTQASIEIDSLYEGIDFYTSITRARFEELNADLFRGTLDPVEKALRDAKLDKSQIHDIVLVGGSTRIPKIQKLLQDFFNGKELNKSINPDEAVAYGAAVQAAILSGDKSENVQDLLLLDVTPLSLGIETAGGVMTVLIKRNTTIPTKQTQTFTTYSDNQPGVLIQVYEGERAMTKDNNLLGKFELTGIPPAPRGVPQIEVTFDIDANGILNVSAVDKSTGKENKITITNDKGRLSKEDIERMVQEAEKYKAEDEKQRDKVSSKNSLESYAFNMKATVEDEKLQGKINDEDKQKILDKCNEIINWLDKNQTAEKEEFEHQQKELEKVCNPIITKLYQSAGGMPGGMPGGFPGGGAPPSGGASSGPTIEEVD

Results are given in words; binding and its absence hold for the method and conditions named. Binding seen in cells or lysates may run through a third protein. Here binding means that the protein was enriched with, or labelled near, the bait; the list need not be complete.

The target of experiment [1] is FLAG-UBQLN2 WT (human) (UniProt Q9UHD9). The experiment is described as follows: affinity purification with mass spectrometry; SILAC proteomics on FLAG IP from cells stably expressing inducible FLAG-UBQLN2 WT or P506T.
Experiment [2] deals with FLAG-UBQLN2 P506T (human) (UniProt Q9UHD9). Described as above.

PSMA6 (from UniProt P60900 1-246): the binding result in experiment [1] and in experiment [2] was “binds” in each case.

“HSPA8 (endogenous in HEK293) (from UniProt P11142 1-646)”: in experiment [1], the binding entry is given as “binds”.
